# Data from PubChem BioAssay AID504834 (National Center for Advancing Translational Sciences (NCATS), 2011).
# Out of some 320,000 compounds screened, about 22,000 (6.9%) were called active. The shares of active, inactive and inconclusive entries below differ from those in the screen. Calls follow the shape of the dose curve; as a rule, active = well fitted inhibition curve with a large enough effect; inconclusive = small, poorly fitted or top-dose-only effect, or another doubt; inactive = no such curve, though single readings can be large or run the other way. Potencies of inconclusive entries are doubtful fits and often do not repeat.
# Assay: Primary qHTS for delayed death inhibitors of the malarial parasite plastid, 96 hour incubation
# Conditions: P. falciparum luciferase reporter growth; series mostly up to 28.7 µM
# How it was run: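 Two-generation exposure (96 h) targets delayed-death phenotype. Reporter parasites carrying integrated firefly luciferase, in red cells at 2% hematocrit and 0.05% parasitemia final, kept at 37 C, 5% CO2; luminescence loss indicates inhibition.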
# Potency is read from the fitted curve at half-maximal effect.
row,Structure (SMILES),Potency
1,O=C(Cn1ncc2c(=O)oc3ccccc3c21)NCCC1=CCCCC1,active: 9.28 µM
2,CC1CCCCC12NC(=O)N(CC(=O)Nc1ccc(S(=O)(=O)Nc3ncccn3)cc1)C2=O (configuration not stated),inactive
3,N#Cc1cc(Cl)c(NCC2CCCO2)cc1C#N (configuration not stated),"inconclusive: 11.7 µM [inhibitor, single point]"
4,Cc1ccc(OC(=O)c2ccc(C)c(C)c2)cn1,"inconclusive: 18.5 µM [inhibitor, single point]"
5,Cc1ccc(S(=O)(=O)N2CCN(C(=O)c3ccc(COc4ccccc4)o3)CC2)cc1,active: 9.28 µM
6,CC(C)(C)NC(=O)CN(c1cccc([N+](=O)[O-])c1)S(=O)(=O)c1ccccc1,inactive
7,NNC(=O)c1ccc(Cn2cc(Br)cn2)o1,inactive
8,COc1ccc(C(=O)Nc2ccccc2N2CCCC2)cc1S(=O)(=O)N1CCOCC1,"inconclusive: 10.4 µM [inhibitor, single point]"
9,COc1cc2c(cc1OC)C(c1ccc([N+](=O)[O-])cc1)N(C(C)=O)CC2 (configuration not stated),"inconclusive: 7.38 µM [inhibitor, partial curve, poor fit]"
10,O=C(Cc1ccc(Cl)cc1Cl)Nc1ccncc1,"inconclusive: 18.5 µM [inhibitor, single point]"
11,Cc1cccc(OCCNc2ccc(C(F)(F)F)cc2[N+](=O)[O-])c1,inactive
12,N#CC(C#N)=Cc1ccc(NC(=O)c2ccc(Br)cc2)cc1,inactive
13,CC(=O)c1cc2c(cc1N/C(=N/S(=O)(=O)c1ccc(C)cc1)c1ccc(Cl)cc1)OCO2,"inconclusive: 18.5 µM [inhibitor, single point]"
14,Cc1cnc(-c2nnc(N(C)C(=O)c3cccnc3)s2)cn1,"inconclusive: 1.04 µM [inhibitor, partial curve, poor fit]"
15,O=C(CSc1nccc(=O)[nH]1)Nc1ccc(F)c([N+](=O)[O-])c1,inactive
16,CCN1CCN(c2ccc(NC(=O)c3cccc(N4CCCC4=O)c3)cc2)CC1,inactive
17,O=C(CSCc1cccc(CSCC(=O)Nc2ccccc2)n1)Nc1ccccc1,"inconclusive: 18.5 µM [inhibitor, single point]"
18,CCc1ccc(C(=O)N/N=C/c2ccncc2)s1,inactive
19,CC(C)(C)c1cc(C(=S)N2CCN(CCO)CC2)cc(C(C)(C)C)c1O,inactive
20,CCC(C)Sc1nnc(NS(=O)(=O)Cc2ccccc2)s1 (configuration not stated),"inconclusive: 18.5 µM [inhibitor, single point]"
21,CCCS(=O)(=O)c1ccc(COC(=O)c2ccc(NC(C)=O)cc2)cc1,"inconclusive: 0.0738 µM [inhibitor, full curve, poor fit]"
22,c1ccc(-c2nnc3sc(CN4CCc5ccccc54)cn23)cc1,"inconclusive: 18.5 µM [inhibitor, single point]"
23,CCOC(=O)c1sc(N)c(C#N)c1CSc1nnc(C2CCCCC2)n1N,active: 10.4 µM
24,Cc1ccc(S(=O)(=O)NN2C(=O)/C(=C/c3cccn3C)SC2=S)cc1,inactive

row,Structure (SMILES),Potency
1,Cc1ccc(S(=O)(=O)N2CCCC(C(=O)NCc3ccccn3)C2)cc1 (configuration not stated),inactive
2,O=C(NCCc1ccccc1)c1ccc2nc(-c3ccco3)c(-c3ccco3)nc2c1,inactive
3,O=C1CC(c2cc(-c3ccccc3)no2)C1,inactive
4,Cc1ccc(Nc2nnc(C(C)(C)C)c(=O)n2N)cc1,"inconclusive: 11.7 µM [inhibitor, single point]"
5,COc1ccc(C)cc1NC(=O)N1CCC(CO)(CC2CCCCO2)CC1 (configuration not stated),"inconclusive: 11.7 µM [inhibitor, single point]"
6,COc1ccccc1N1CCN(Cc2ccccc2Cl)CC1,"inconclusive: 13.1 µM [inhibitor, single point]"
7,O=C(CCCC(=O)N(CC(=O)NC1CCCCC1)c1ccccc1F)Nc1ccccn1,"inconclusive: 3.7 µM [inhibitor, partial curve, poor fit]"
8,O=C1OCc2cc(NC(=O)C34CC5CC(CC(C5)C3)C4)ccc21,"inconclusive: 0.0522 µM [inhibitor, full curve, poor fit]"
9,Cc1ccc(Cn2ncc3c(N4CCN(CCc5ccccc5)CC4)ncnc32)cc1,"inconclusive: 4.15 µM [inhibitor, full curve, poor fit]"
10,CC1(C(=O)NC(=S)N(Cc2ccccc2)c2ccccn2)CC1(Cl)Cl (configuration not stated),"inconclusive: 11.7 µM [inhibitor, single point]"
11,COc1ccc(C(=O)NC=C2C(=O)OC(C)(C)OC2=O)cc1,inactive
12,CCN1C(c2ccccc2)C(C)C(=O)C(C)C1c1ccccc1 (configuration not stated),active: 9.28 µM
13,Cc1noc(C)c1CSc1nnc(-c2ccccc2F)n1CCc1ccccc1,"inconclusive: 18.5 µM [inhibitor, single point]"
14,Cc1cc(C)c(S(C)(=O)=O)c(N(C)NC(=O)c2c(F)cccc2F)n1,inactive
15,COc1ccc(C(C)NC(=S)NCc2ccc(F)cc2)cc1 (configuration not stated),inactive
16,Cc1ccccc1NC(=S)N1CCN(Cc2ccc3c(c2)OCO3)CC1,inactive
17,Cc1ccc(S(=O)(=O)N2CCN(C(=O)C3Cc4ccccc4CN3C(=O)c3ccco3)CC2)cc1 (configuration not stated),"inconclusive: 16.5 µM [inhibitor, single point]"
18,COc1ccc(CC2(CO)CCN(Cc3ccc(NC(C)=O)cc3)CC2)cc1,"inconclusive: 18.5 µM [inhibitor, single point]"
19,COc1ccc(C(C(=O)NC2CCCCC2)N(C(=O)Cc2c[nH]c3ccccc23)c2ccccc2C)cc1OC (configuration not stated),active: 13.1 µM
20,O=C(NC(=S)Nc1ccc(Cl)cc1)c1ccccc1,inactive
21,CCOC(=O)Cc1csc(N/N=C/c2ccc(Cl)cc2)n1,inactive
22,CC(CCc1ccccc1)NC(=O)c1cccnc1 (configuration not stated),"inconclusive: 0.329 µM [inhibitor, full curve]"
23,COc1cc(/C=N/NC(=O)c2ccc(N3CCCC3=O)cc2)ccc1O,"inconclusive: 10.4 µM [inhibitor, single point]"
24,N#C/C(=C\c1ccc(O)cc1)C(=O)N1CCCC1,inactive

row,Structure (SMILES),Potency
1,COCCC(=O)N1CCC(Oc2ccc(C(=O)N3CCC[C@H]3CO)cc2)CC1,"inconclusive: 20.8 µM [inhibitor, single point]"
2,CCOc1ccc2oc(-c3ccccc3)c(C(=O)N3CCN(CCO)CC3)c2c1,"inconclusive: 0.415 µM [inhibitor, full curve, poor fit]"
3,CCOC(=O)C(CC)Sc1nnc(COc2ccc(C)cc2)n1-c1ccccc1 (configuration not stated),"inconclusive: 7.38 µM [inhibitor, partial curve, poor fit]"
4,CC(=O)c1cccc(NC(=S)N2CCN(S(=O)(=O)c3ccccc3)CC2)c1,active: 4.15 µM
5,CCOC(=O)CCC(NC(=O)CCC(=O)NC(CCC(=O)OCC)C(=O)OCC)C(=O)OCC (configuration not stated),"inconclusive: 13.1 µM [inhibitor, single point]"
6,Cc1ccc(C(=O)Nc2cccc(C(F)(F)F)c2)cc1Nc1ccccn1,inactive
7,CCOC(=O)N1CCC(n2c(SCC(=O)Nc3nccs3)nc3ccsc3c2=O)CC1,inactive
8,O=C(C1=COCCO1)N(Cc1nnc(-c2ccccc2Cl)o1)C1CC1,"inconclusive: 8.28 µM [inhibitor, single point]"
9,Cc1ccccc1OCC(=O)OCC(=O)c1ccc[nH]1,inactive
10,O=C(NCCN1C(=O)C2C3C=CC(C3)C2C1=O)N1CCCCC1 (configuration not stated),"inconclusive: 10.4 µM [inhibitor, partial curve, poor fit]"
11,N#CCSc1ccccc1NC(=O)COc1ccc(-c2nnco2)cc1,"inconclusive: 11.7 µM [inhibitor, single point]"
12,O=c1c(Cc2ccc(F)cc2)c(O)ccn1Cc1cccc(Cl)c1,active: 13.1 µM
13,Cc1cc(C)c(S(=O)(=O)N2CCOCC2)cc1NS(=O)(=O)c1cc(OCC(N)=O)c(C)cc1Cl,"inconclusive: 18.5 µM [inhibitor, single point]"
14,COc1cc(C(=O)OC(C)C(=O)NCC2CCCCC2)cc(NC(=O)c2ccco2)c1OC (configuration not stated),"inconclusive: 14.7 µM [inhibitor, partial curve, poor fit]"
15,CCn1ccnc1CN1CCC(CO)(CCOc2ccccc2)CC1,"inconclusive: 2.94 µM [inhibitor, full curve, poor fit]"
16,CCOc1cccc(C(=O)NC(=S)Nc2cccc(NC(=O)c3ccccc3Cl)c2)c1,"inconclusive: 4.15 µM [inhibitor, single point]"
17,CC1(C)Oc2ccc(C(=O)NC3CCCCC3)cc2N(CC#N)C1=O,"inconclusive: 0.262 µM [inhibitor, full curve, poor fit]"
18,CCN1CCN(c2cc(C)c3cc(NC(=O)c4cc(OC)cc(OC)c4)ccc3n2)CC1,"inconclusive: 0.329 µM [inhibitor, full curve]"
19,Cc1ccc(O)c(-c2cc(C(=O)Nc3ccc(S(=O)(=O)N4CC(C)OC(C)C4)cc3)[nH]n2)c1 (configuration not stated),inactive
20,COCCCNC(=S)Nc1cc2oc3ccccc3c2cc1OC,"inconclusive: 4.65 µM [inhibitor, single point]"
21,Cc1ccc(CSc2nnc3c(n2)OC2(Nc4ccccc4-3)C(=O)Nc3ccc(F)cc32)cc1 (configuration not stated),inactive
22,COc1cccc(C(c2c(N)[nH]c(=S)[nH]c2=O)c2c(N)[nH]c(=S)[nH]c2=O)c1,"inconclusive: 3.7 µM [inhibitor, partial curve]"
23,Cc1ccc(-n2ncc3c2CCCC3NC(=O)c2ccoc2)cc1C (configuration not stated),"inconclusive: 18.5 µM [inhibitor, single point]"
24,CCCNC(=O)C(Cc1cccc(Cl)c1)NC(=O)c1ccc(C#N)cc1 (configuration not stated),"inconclusive: 13.1 µM [inhibitor, single point]"

# Given with bars between the fields: four of the compounds above
row | Structure (SMILES) | Potency
16 | CCOc1cccc(C(=O)NC(=S)Nc2cccc(NC(=O)c3ccccc3Cl)c2)c1 | inconclusive: 4.15 µM [inhibitor, single point]
17 | CC1(C)Oc2ccc(C(=O)NC3CCCCC3)cc2N(CC#N)C1=O | inconclusive: 0.262 µM [inhibitor, full curve, poor fit]
18 | CCN1CCN(c2cc(C)c3cc(NC(=O)c4cc(OC)cc(OC)c4)ccc3n2)CC1 | inconclusive: 0.329 µM [inhibitor, full curve]
19 | Cc1ccc(O)c(-c2cc(C(=O)Nc3ccc(S(=O)(=O)N4CC(C)OC(C)C4)cc3)[nH]n2)c1 (configuration not stated) | inactive
